# Hit rate of the full screen: of about 390,000 compounds, about 910 (0.23%) were called active. The inconclusive results got no clear call from the source; some entries with a clear call stand among them for comparison. Calls come from the whole dose curve; as a rule, active = well fitted inhibition curve with a large enough effect; inconclusive = small, poorly fitted or top-dose-only effect; inactive = no such curve, though single readings can be large or run the other way. A potency beside an inconclusive call is a rough fit, not a confirmed value.
# Amino acid sequences for entries named in this document (tags omitted). A change or cut given only in a name is not applied to a line headed by its entry.
# UniProt O94782: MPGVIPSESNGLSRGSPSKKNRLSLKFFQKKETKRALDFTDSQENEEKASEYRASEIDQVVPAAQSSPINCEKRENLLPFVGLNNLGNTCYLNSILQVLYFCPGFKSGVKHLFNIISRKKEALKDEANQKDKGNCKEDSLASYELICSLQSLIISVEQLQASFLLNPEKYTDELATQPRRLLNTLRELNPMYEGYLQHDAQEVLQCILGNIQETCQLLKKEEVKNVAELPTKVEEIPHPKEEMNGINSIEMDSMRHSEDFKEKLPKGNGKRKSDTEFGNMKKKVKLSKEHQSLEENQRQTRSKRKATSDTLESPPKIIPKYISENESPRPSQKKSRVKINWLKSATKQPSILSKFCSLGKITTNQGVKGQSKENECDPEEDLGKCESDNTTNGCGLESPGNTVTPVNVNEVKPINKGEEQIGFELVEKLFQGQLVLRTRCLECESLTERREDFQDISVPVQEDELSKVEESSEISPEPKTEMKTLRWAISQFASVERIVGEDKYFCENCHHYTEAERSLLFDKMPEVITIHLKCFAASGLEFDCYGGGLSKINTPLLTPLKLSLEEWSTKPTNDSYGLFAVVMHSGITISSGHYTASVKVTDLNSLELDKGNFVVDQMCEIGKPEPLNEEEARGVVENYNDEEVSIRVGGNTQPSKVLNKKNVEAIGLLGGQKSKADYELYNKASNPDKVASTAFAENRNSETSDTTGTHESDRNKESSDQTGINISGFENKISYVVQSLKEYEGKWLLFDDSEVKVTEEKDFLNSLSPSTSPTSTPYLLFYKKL
# Target: Ubiquitin carboxyl-terminal hydrolase 1 (Homo sapiens) (UniProt O94782)
# Assay: Inhibitors of USP1/UAF1: Primary Screen; note: nearly all actives have a fitted effect of over 60% in size
# Settings: recombinant USP1/UAF1, Ub-Rhodamine cleavage fluorescence; activity change, negative = inhibition: at 57.1 µM (top of the series)
# Summary of the method: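 1 nM enzyme complex + cpd, 15 min RT; start with Ub-Rho 150nM final; kinetic fluorescence ex 480/em 540, 6 reads q60 s. Buffer 50mM HEPES pH 7.8, 0.5mM EDTA, 0.1 mg/ml BSA, 1mM TCEP, 0.01% Tween-20.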
# % is set by controls: 0 for no effect and ±100 for the full control effect; potency is the fitted concentration of half-maximal effect.
SMILES,"activity change, negative = inhibition",Potency
Cc1ccc(N2C(=O)CC(Sc3cccs3)C2=O)cc1 (stereo not given),inactive: -3.82%,
O=[N+]([O-])c1ccc(N(CC(O)CN2CCCCC2)S(=O)(=O)c2ccccc2)cc1 (stereo not given),,"inconclusive: 28.2 µM [inhibitor, partial curve]"
CCOc1ccc(N2C(=O)C(Cl)=C(Nc3ccccc3O)C2=O)cc1,inactive: -19.6%,
Cc1ccc(-c2nc3sc(CCNC(=O)c4ccc(C)c(C)c4)c(C)n3n2)cc1,inactive: -10.4%,
CC1(C)CC(NC2C3CC4CC(C3)CC2C4)CC(C)(C)N1 (stereo not given),,"inconclusive: 2.82 µM [inhibitor, full curve]"
CCc1ccc(NC(=O)CSC2=Nc3ccccc3C3=NC(CCC(=O)NCc4ccco4)C(=O)N23)cc1 (stereo not given),,"inconclusive: 39.8 µM [inhibitor, partial curve, poor fit]"
CCc1sc(N(C(=O)Cc2ccccc2)c2ccccc2F)nc1-c1ccc(C)cc1,,"inconclusive: 10 µM [inhibitor, partial curve, poor fit]"
CC(C)=NNc1nc(-c2ccc(N3C(=O)CCC3=O)cc2)cs1,,"inconclusive: 1.12 µM [inhibitor, partial curve]"
CC1CCN(CCCN2C(=O)C3C(C(=O)Nc4cccc(Cl)c4)C4C=CC3(O4)C2C(=O)NC2CCCCC2)CC1 (stereo not given),,"inconclusive: 0.708 µM [inhibitor, full curve, poor fit]"
COc1ccc(C2=NS(=O)(=O)N(C)C(C(=O)Nc3ccc(OC)c(OC)c3)=C2)cc1,,"inconclusive: 50.1 µM [inhibitor, partial curve, poor fit]"
Cc1ccc(S(=O)(=O)NC(=O)Nc2cc(C(C)(C)C)on2)cc1,inactive: -6.62%,
CCOCc1nnc(NC(=O)COc2ccc3c(c2)OCO3)s1,inactive: -1.42%,
COc1ccc(CN2CC[C@H]3C=CC[C@@H](C(=O)N4CCOCC4)[C@H]3C2=O)cc1OC,,"inconclusive: 44.7 µM [inhibitor, partial curve, poor fit]"
CCCn1c(=S)[nH]c2cc(C(=O)NCC3CCCO3)ccc2c1=O (stereo not given),,"inconclusive: 5.62 µM [inhibitor, partial curve]"
CCOC(=O)C1CCCN(S(=O)(=O)c2ccc(F)c(C(=O)Nc3ccc(F)c(F)c3)c2)C1 (stereo not given),,"inconclusive: 1.58 µM [inhibitor, full curve, poor fit]"
Cc1cccc2nc(-c3ccco3)c(Nc3ccc4c(c3)OCO4)n12,,"inconclusive: 10 µM [inhibitor, partial curve, poor fit]"
CCN(CC)c1cc(C)c2cc(NC(=O)c3cccc(OC)c3)ccc2n1,,"inconclusive: 89.1 µM [inhibitor, partial curve, poor fit]"
CS(=O)(=O)c1ccc(Sc2nc3ccccc3[nH]2)c([N+](=O)[O-])c1,inactive: -12.3%,
O=C(CSCCO)Nc1ccc([N+](=O)[O-])cc1,,"inconclusive: 39.8 µM [inhibitor, partial curve, poor fit]"
O=[N+]([O-])c1ccc(Cl)c2c1C1C=CCC1C(c1ccccn1)N2 (stereo not given),,"inconclusive: 20 µM [inhibitor, partial curve]"

# 3 structures from above, arranged by length of the SMILES, low to high.
SMILES,"activity change, negative = inhibition",Potency
CCCn1c(=S)[nH]c2cc(C(=O)NCC3CCCO3)ccc2c1=O (stereo not given),,"inconclusive: 5.62 µM [inhibitor, partial curve]"
CCN(CC)c1cc(C)c2cc(NC(=O)c3cccc(OC)c3)ccc2n1,,"inconclusive: 89.1 µM [inhibitor, partial curve, poor fit]"
CCOC(=O)C1CCCN(S(=O)(=O)c2ccc(F)c(C(=O)Nc3ccc(F)c(F)c3)c2)C1 (stereo not given),,"inconclusive: 1.58 µM [inhibitor, full curve, poor fit]"

# The list continues:

SMILES,"activity change, negative = inhibition",Potency
CCc1ccc(NC(=O)c2ccc3c(O)c(S(=O)(=O)c4ccc(Cl)cc4)c(=O)[nH]c3c2)cc1,,"inconclusive: 44.7 µM [inhibitor, partial curve, poor fit]"
CC(C)COc1ccc(CNC(=S)NCc2ccccc2)cc1,,"inconclusive: 0.794 µM [inhibitor, full curve, poor fit]"
Cc1ccc(C)c(OCCn2c(-c3ccc(Cl)cc3)nc3ccccc3c2=O)c1C,,"inconclusive: 0.631 µM [inhibitor, full curve, poor fit]"
C/C(=N/NS(=O)(=O)c1ccc(C)c(C)c1)c1ccncc1,inactive: -22.1%,
O=C(NC1CCCCCC1)c1cc2n(n1)C(C(F)(F)F)CC(c1ccco1)N2 (stereo not given),inactive: -17.3%,
NS(=O)(=O)c1ccc(CNC(=O)c2cc(S(=O)(=O)N3CCOCC3)c(Cl)cc2Cl)cc1,,"inconclusive: 0.355 µM [inhibitor, full curve, poor fit]"
Cc1cccc(C2=NN(c3ccccc3)[C@@H](C(=O)N3CCOC3=O)[C@@H]2c2ccc(Cl)cc2)c1,,"inconclusive: 31.6 µM [inhibitor, partial curve]"
Cc1ccc(-n2nnnc2CNC(=O)C(C)(C)C)cc1C,,"inconclusive: 0.891 µM [inhibitor, full curve]"
CCOc1cccc2sc(N(CCN(C)C)C(=O)/C=C/c3cccs3)nc12,,"inconclusive: 12.6 µM [inhibitor, partial curve]"
COc1ccc(N(C(=O)c2cc3ccccc3oc2=O)C2C=CS(=O)(=O)C2)c(OC)c1 (stereo not given),,"inconclusive: 31.6 µM [inhibitor, single point]"
Cn1ccc(C(=O)OCC(=O)Nc2cccc(Cl)c2)n1,,"inconclusive: 6.31 µM [inhibitor, single point]"
COC(=O)c1ccc(/C=C/C(=O)OCC(=O)c2ccc[nH]2)cc1,,"inconclusive: 44.7 µM [inhibitor, single point]"
Cc1ccc(CN2CCSc3ccc(C(=O)N4CCN(c5ccccc5)CC4)cc32)cc1,,"inconclusive: 7.94 µM [inhibitor, full curve]"
COc1ccc(S(=O)(=O)N(C)c2ccc(C(=O)NCc3ccccn3)cc2)cc1,inactive: -12.6%,
CCOC(=O)C(NC(=O)CCl)(Nc1sc(C)c(CC)c1C#N)C(F)(F)F (stereo not given),inactive: -5.03%,
O=C(COC(=O)c1ccc([N+](=O)[O-])o1)Nc1ccc(N2CCOCC2)cc1,,"inconclusive: 35.5 µM [inhibitor, single point]"
Cc1onc(-c2ccccc2Cl)c1C(=O)Nc1cccc2cccnc12,,"inconclusive: 39.8 µM [inhibitor, partial curve]"
COc1cc(C(=O)Nc2ccc(Nc3ccccc3)cc2)cc(OC)c1OC,inactive: -18.4%,
CC(=O)c1ccc(S(=O)(=O)N2CCn3cccc3C2c2ccc(C)cc2)cc1 (stereo not given),,"inconclusive: 0.794 µM [inhibitor, full curve]"
Cc1nc(-n2nc(C)c(Cc3ccccc3Cl)c2C)sc1C(=O)Nc1ccccc1F,,"inconclusive: 2.24 µM [inhibitor, partial curve, poor fit]"

# From PubChem BioAssay AID743255 (National Center for Advancing Translational Sciences (NCATS), 2014)
